Test results as given in the NIST ThermoML archive (doi:10.1016/j.fluid.2009.07.009).
± gives the expanded uncertainty stated by the source.

Test: relative permittivity at zero frequency (dimensionless)
Settings: 303.15 K; 101.33 kPa; Liquid; Parallel plate capacitor

For `CC(=O)N(C)C` [N,N-dimethylethanamide], the “relative permittivity at zero frequency” value was 37.72 ± 0.23.
